Reference: PubChem BioAssay AID624291 (National Center for Advancing Translational Sciences (NCATS), 2012)
The whole screen tested about 350,000 compounds, of which about 220 (0.063%) were called active. Inconclusive results, whose numbers are uncertain, are shown with a selection of clear calls. Calls come from the whole dose curve; as a rule, active = well fitted activation curve with a large enough effect; inconclusive = small, poorly fitted or top-dose-only effect; inactive = no such curve, though single readings can be large or run the other way. Potencies of inconclusive entries are doubtful fits and often do not repeat.

Experiment: qHTS for Activators of Integrin-Mediated Alleviation for Muscular Dystrophy; note: nearly all actives have a fitted effect of over 60% in size;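 for activation: 100% = response of the positive control SU9516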
Conditions: alpha7betagal myoblasts, beta-gal FDG fluorescence, 48 h; activation: at 38.3 µM (top of the series)
Summary of the method: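 Alpha7betagal+/- myoblasts (passage 13) were plated 16-24 hr, then exposed to compounds (1:260 dilution of DMSO stock) for 48 hours at 37C. After MPER lysis, β-galactosidase reporter activity was read as FDG fluorescence (ex 480/em 540) after 30 minutes.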
Potency is the fitted concentration of half-maximal effect.

Row | Structure (SMILES) | Potency | activation
1 | CC(C)CC(NC(N)=O)C(=O)OCC(=O)NC(=O)NC1CCCC1 (stereo not given) | inconclusive: 0.398 µM [activator, partial curve, poor fit] | 
2 | Cn1c(SCC(=O)Nc2nncs2)nnc1C1CC1 | inconclusive: 28.2 µM [activator, single point] | 
3 | O=C1COc2ccc(-c3csc(NCCc4ccccc4)n3)cc2N1 | inconclusive: 3.55 µM [activator, full curve, poor fit] | 
4 | CCN(CCn1cccn1)C(=O)CC1C(=O)NCCN1CCc1ccccc1 (stereo not given) | inconclusive: 5.01 µM [activator, single point] | 
5 | Cc1ccc(-n2[nH]c(C)c(/C=N/Nc3ccc([N+](=O)[O-])cc3[N+](=O)[O-])c2=O)cc1 | inconclusive: 31.6 µM [activator, single point] | 
6 | Cc1cccc(NC(=O)c2ccccc2NC(=O)C2CCCCC2)c1C |  | inactive: -0.935%
7 | Cc1ccc(S(=O)(=O)NCC(=O)NCC(=O)N(C)Cc2ccc3ccccc3c2)cc1C | inconclusive: 11.2 µM [activator, partial curve, poor fit] | 
8 | CS(=O)(=O)N(CC(=O)N1CCOCC1)c1ccc(Cl)cc1 | inconclusive: 11.2 µM [activator, partial curve, poor fit] | 
9 | COc1ccc(CNC(=O)CN(c2ccc(C)cc2)S(=O)(=O)c2c(C)nn(C)c2C)cc1 | inconclusive: 2.82 µM [activator, single point] | 
10 | Cc1cc(C(F)(F)F)cc(NNC(=O)NC(=O)c2ccccc2Cl)n1 | inconclusive: 3.16 µM [activator, single point] | 
11 | CSc1nnc2c(=O)[nH]c(=O)n(C)c2n1 | inconclusive: 2 µM [activator, partial curve, poor fit] | 
12 | COc1ccc(-n2c(SCc3cn4c(C)cccc4n3)nc3ccccc3c2=O)cc1OC | inconclusive: 3.98 µM [activator, single point] | 
13 | CC1CN(C(=S)Nc2cccc(Cl)c2)CC(C)O1 (stereo not given) | inconclusive: 4.47 µM [activator, single point] | 
14 | Cc1ccc(S(=O)(=O)Nc2ccc3nc(C)oc3c2)cc1 |  | inactive: 24.1%
15 | CCc1nnc(NC(=O)c2ccc(-c3ccc(F)cc3)o2)s1 | inconclusive: 1.78 µM [activator, full curve, poor fit] | 
16 | COc1ccc(/C([O-])=C(/C(=S)Nc2ccc(C)c(C)c2)n2c[n+](C)c3ccccc32)cc1OC | inconclusive: 2.82 µM [activator, full curve, poor fit] | 
17 | CC(C)(C)OC(=O)N1CCC[C@H]1C(=O)N/N=C/c1ccc2nccnc2c1 | inconclusive: 10 µM [activator, partial curve, poor fit] | 
18 | O=C(NC1CCCCC1)c1cc(-c2ccccc2O)on1 | inconclusive: 28.2 µM [activator, single point] | 
19 | COc1cc(/C=C2\SC(=S)N(C(C(=O)O)c3ccccc3)C2=O)cc(OC)c1OC (stereo not given) |  | inactive: 1.56%
20 | COCc1ccc(C(=O)N2CCCC(CNC(=O)c3ccc(F)cc3)C2)o1 (stereo not given) |  | inactive: 15.2%
21 | COc1ccc(OC)c(NC(=O)CN2CCC(NC(=O)c3ccccc3C)CC2)c1 | inconclusive: 3.98 µM [activator, full curve] | 
22 | CCCOc1ccc(CCc2n[nH]c(=S)n2Cc2ccccc2)cc1 |  | inactive: -12.4%

Complete entries, quoted from the list:
COc1ccc(/C([O-])=C(/C(=S)Nc2ccc(C)c(C)c2)n2c[n+](C)c3ccccc32)cc1OC as listed: Potency: inconclusive: 2.82 µM [activator, full curve, poor fit]
O=C(NC1CCCCC1)c1cc(-c2ccccc2O)on1 as listed: Potency: inconclusive: 28.2 µM [activator, single point]
CC(C)(C)OC(=O)N1CCC[C@H]1C(=O)N/N=C/c1ccc2nccnc2c1 as listed: Potency: inconclusive: 10 µM [activator, partial curve, poor fit]
Cc1ccc(S(=O)(=O)NCC(=O)NCC(=O)N(C)Cc2ccc3ccccc3c2)cc1C as listed: Potency: inconclusive: 11.2 µM [activator, partial curve, poor fit]

Additional compounds follow.

Row | Structure (SMILES) | Potency | activation
23 | O=C(c1ccco1)N1CCCC(c2nc(-c3ccc(S(=O)(=O)NCc4ccccc4)cc3)no2)C1 (stereo not given) |  | inactive: -45%
24 | CCOc1ccc(/C=C2\CCC(C3CCCC3)C2=O)cc1 (stereo not given) | inconclusive: 8.91 µM [activator, partial curve, poor fit] | 
25 | O=C(NCCNC1CCC(c2ccccc2)CC1)c1ccc(F)cc1 (stereo not given) | inconclusive: 28.2 µM [activator, single point] | 
26 | O=C(NC1CC(=O)N(c2ccc3c(c2)OCCO3)C1)N1CCC(O)CC1 (stereo not given) | inconclusive: 7.08 µM [activator, partial curve, poor fit] | 
27 | CCC(=O)N1CCc2cc(S(=O)(=O)CCC(=O)NCc3ccc(OC)cc3)ccc21 | inconclusive: 3.98 µM [activator, single point] | 
28 | COc1ccc(OCCN(C)CC(=O)Nc2ccccc2SC)cc1 | inconclusive: 11.2 µM [activator, partial curve, poor fit] | 
29 | COc1cc(Nc2nc3ccccc3nc2NS(=O)(=O)c2ccc([N+](=O)[O-])cc2)cc(OC)c1OC | inconclusive: 5.01 µM [activator, partial curve, poor fit] | 
30 | O=C(CCNC(=O)c1ccccc1Cl)Nc1cc(S(=O)(=O)N2CCOCC2)ccc1N1CCOCC1 | inconclusive: 1.41 µM [activator, partial curve, poor fit] | 
31 | CC(=O)OC1(C(C)=O)CCC2C3CC4OC45CC(O)CCC5(C)C3CCC21C (stereo not given) | inconclusive: 0.501 µM [activator, full curve, poor fit] | 
32 | COc1ccc(S(=O)(=O)N2CCOCC2)cc1NC(=O)c1ccc(OC(F)F)cc1 | inconclusive: 5.01 µM [activator, single point] | 
33 | CCn1nc(NS(=O)(=O)c2ccc([N+](=O)[O-])cc2)c2cc3cc(C)ccc3nc21 | inconclusive: 1.78 µM [activator, partial curve, poor fit] | 
34 | COc1cccc(NC(=S)/C(=C(\[O-])c2ccc([N+](=O)[O-])cc2)[n+]2ccccc2)c1 | inconclusive: 5.01 µM [activator, single point] | 
35 | O=C(CN1CCOCC1)NN=C1CCCCCCCCCCC1 | inconclusive: 20 µM [activator, single point] | 
36 | CNC(=O)c1ncoc1-c1ccc(Cl)cc1 | inconclusive: 5.01 µM [activator, single point] | 
37 | Cc1ccccc1-n1c(C)cc(/C=C(\C#N)C(=O)NCC2CCCO2)c1C (stereo not given) |  | inactive: -28.4%
38 | Cc1cc(N2CCOCC2)nc2ccc(NC(=S)NCCC(C)C)cc12 | inconclusive: 28.2 µM [activator, single point] | 
39 | NC(=O)c1cc2ccccc2o/c1=N\NC(=O)c1ccccc1O | inconclusive: 2.82 µM [activator, single point] | 
40 | COC(=O)C1CCN(C(=O)COC(=O)C2CCN(S(=O)(=O)c3ccc4c(c3)OCCO4)CC2)CC1 |  | inactive: 3.61%
41 | CCOc1ccc(NC(=O)CCC(=O)c2ccc(OC)cc2)cc1 | inconclusive: 28.2 µM [activator, single point] | 
42 | CC(NC(=O)c1cccs1)C(c1cccs1)N1CCN(c2ccccc2)CC1 (stereo not given) | inconclusive: 28.2 µM [activator, single point] | 
43 | Cc1ccc(/C(N)=N/OC(=O)Cc2cccc3ccccc23)cc1 |  | inactive: 8.55%
44 | N#C/C(=C/c1ccc(O)c([N+](=O)[O-])c1)C(=O)Nc1ccccc1 |  | inactive: -10%

Row | Structure (SMILES) | Potency | activation
45 | CCOC(=O)Cn1nc(C)cc1NC(=O)c1cc(OC)c(OC)c(OC)c1 |  | inactive: -13.1%
46 | COc1cc(C)c(C)cc1S(=O)(=O)NC1CC(C)(C)NC(C)(C)C1 | inconclusive: 1 µM [activator, partial curve, poor fit] | 
47 | Cc1ccc(OCC(O)CN2CCOCC2)cc1 (stereo not given) | inconclusive: 20 µM [activator, single point] | 
48 | Fc1ccc2[nH]c3c(NCCN4CCOCC4)ncnc3c2c1 |  | inactive: -44.7%
49 | CCOc1ccc(CNCc2ccccc2Cl)cc1 |  | inconclusive: -63.7% [activator]
50 | Cc1ccccc1C1CC(c2ccccc2OC(F)F)Nc2ncnn21 (stereo not given) | inconclusive: 28.2 µM [activator, single point] | 
51 | COC(=O)/C=c1/s/c(=C(/C#N)C(=O)N2CCCCC2)n(-c2ccccc2)c1=O |  | inactive: -1.78%
52 | CCOC(=O)c1c(C)[nH]c(C)c1S(=O)(=O)NCC1CCN(Cc2ccccc2OC)CC1 | inconclusive: 5.01 µM [activator, single point] | 
53 | Cc1csc(NC(=O)CSc2nnc(-c3cccnc3)o2)n1 | inconclusive: 2.82 µM [activator, single point] | 
54 | O=C(Nc1ccc2c(c1)OCO2)c1cc(-c2cccc(O)c2)on1 | inconclusive: 28.2 µM [activator, single point] | 
55 | COc1ccccc1C(=O)N1C(CC(=O)Nc2cc(Cl)ccc2C)C(=O)NC2CCCCC21 (stereo not given) | inconclusive: 31.6 µM [activator, single point] | 
56 | CC(NC(=O)Cn1cnnn1)C12CC3CC(CC(C3)C1)C2 (stereo not given) |  | inactive: 11.6%
57 | COc1cc(CO)c(Br)cc1OCC(N)=O | inconclusive: 5.62 µM [activator, partial curve, poor fit] | 
58 | COc1ccc(C(=O)NCc2nnc(SCC(=O)Nc3ccccc3F)o2)cc1 | inconclusive: 28.2 µM [activator, single point] | 
59 | O=C(NC1CCCC1)c1cc(-c2ccccc2O)on1 |  | inactive: 21.6%
60 | CC(=O)c1ccccc1OCCOc1ccccc1C(C)=O |  | inactive: 15.9%
61 | Cc1ccccc1NC(=O)C(=O)Nc1ccccc1C | inconclusive: 2.51 µM [activator, partial curve, poor fit] | 
62 | COc1cc2c(cc1OC)C(c1ccccc1)N(C(=O)C(C)(C)C)CC2 (stereo not given) | inconclusive: 14.1 µM [activator, partial curve, poor fit] | 
63 | Cc1c(Cl)cccc1NC(=O)Cn1cnc(S(=O)(=O)N2CCCC2)c1 | inconclusive: 28.2 µM [activator, single point] | 
64 | COc1cccc(CNc2nc3ccc(C)cc3n3cnnc23)c1 | inconclusive: 2.24 µM [activator, partial curve, poor fit] | 
65 | COc1cc2ncnc(NCc3ccccc3)c2cc1OC | inconclusive: 28.2 µM [activator, partial curve, poor fit] | 
